Data source: PubChem BioAssay AID1508587 (Peter MacCallum Cancer Centre, 2020)

Screen: 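Retest of knockdowns boosting BRAF inhibitor action on lactate release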 (follow-up of hits)
System: human WM266.4 melanoma cells with a BRAF V600 mutation
Knock-down reagent: single siRNA against human genes, 25 nM
Duration: 96 h
Conditions: vemurafenib 300 nM (about IC25), given 48 h after transfection for 48 h
Measurement: 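Medium lactate read by absorbance over DAPI-counted nuclei; ratio with versus without vemurafenib, set against non-targeting siRNA, averaged over 2 replicates; cell number also recorded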
Direction: lactate per cell, drug vs no drug: higher = less drug-induced drop in lactate per cell; lactate per cell with vemurafenib: higher = more lactate per cell under drug
Active means: 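a duplex is active when its lactate-per-cell ratio with versus without drug falls under 0.55, i.e. 2 SD below non-targeting; a gene is confirmed if 2 or more of 4 duplexes pass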
The deposit covers about 1,600 reagents; below is a part drawn at random. 623 of all reagents (39%) count as active. 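Calls are for each duplex; lactate ratios contain extreme outliers.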 Reagents against one gene are numbered here. Not all columns of the deposit are shown.

For RBM7 #1, how do the results read?
lactate per cell, drug vs no drug: 0.29; lactate per cell with vemurafenib: 0.47; call: active

Which result is listed for RBM7 #2?
lactate per cell, drug vs no drug: 0.96; lactate per cell with vemurafenib: 2.1; call: inactive

What did the screen give for RBM7 #3?
lactate per cell, drug vs no drug: 1.07; lactate per cell with vemurafenib: 2.84; call: inactive

For RBM7 #4, how do the results read?
lactate per cell, drug vs no drug: 0.88; lactate per cell with vemurafenib: 2.56; call: inactive

Copied from above for reference:
RBM7 #2 → lactate per cell, drug vs no drug = 0.96; lactate per cell with vemurafenib = 2.1; call = inactive
RBM7 #3 → lactate per cell, drug vs no drug = 1.07; lactate per cell with vemurafenib = 2.84; call = inactive

The results go on:
What is on record for UBIAD1 #1?
lactate per cell, drug vs no drug: 0.46; lactate per cell with vemurafenib: 0.48; call: active

For UBIAD1 #2, what does the deposit list?
lactate per cell, drug vs no drug: 0.54; lactate per cell with vemurafenib: 2.63; call: active

With UBIAD1 #3, how do the results read?
lactate per cell, drug vs no drug: 0.68; lactate per cell with vemurafenib: 1.31; call: inactive

What did the screen give for UBIAD1 #4?
lactate per cell, drug vs no drug: 0.62; lactate per cell with vemurafenib: 1.12; call: inactive

How did the screen score H4C3 #1?
lactate per cell, drug vs no drug: 0.57; lactate per cell with vemurafenib: 1.12; call: inactive

What did the screen give for H4C3 #2?
lactate per cell, drug vs no drug: 0.8; lactate per cell with vemurafenib: 1.18; call: inactive

For H4C3 #3, what does the deposit list?
lactate per cell, drug vs no drug: 0.02; lactate per cell with vemurafenib: 0.01; call: active

For H4C3 #4, how do the results read?
lactate per cell, drug vs no drug: 0.44; lactate per cell with vemurafenib: 1.02; call: active
